The list shows a part of the results. This data set is noisy: repeats of one test often differ as much as different tests do.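 Human embryonic kidney cells were transiently transfected with a plasmid bearing a Renilla luciferase gene under the HSV-TK promoter. This first-round screen tests roughly ten thousand compounds for ones that increase reporter output.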

This assay has as its system HEK 293FT. Briefly: log relative Renilla luciferase luminescence (reporter expression vs reference, reference not stated) (log (base not stated)); higher = higher recombinant reporter expression. The settings on record: 10 µM; time after transfection 48 h. As for the experimental part: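 HEK 293FT cells transiently transfected with pRL-TK (Renilla luciferase) were treated with compounds at 10 uM and luminescence was read about 42 h later. Values are log relative Renilla luminescence (log base and reference not stated). Single-pass screen; ICCB Known Bioactives library.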
For the compound `CCCCCCCCCCCCCC(=O)O[C@@H]1[C@@H](C)[C@@]2(O)[C@@H](C=C(CO)C[C@]3(O)C(=O)C(C)=C[C@@H]23)[C@@H]2C(C)(C)[C@]12OC(C)=O` [Phorbol 12 myristate 13 acetate], the log was -0.242. The figure for `CCCCCCCCCCCCCCCCOC[C@@H](O)COP(=O)([O-])OCC[N+](C)(C)C` is -0.179; for `COc1c(C[C@@H](C)OC(=O)Oc2ccc(O)cc2)c2c3c(C[C@@H](C)OC(=O)c4ccccc4)c(OC)c(=O)c4c(O)cc(OC)c(c5c(OC)cc(O)c(c1=O)c52)c43` [Calphostin C] it is -0.324; for `CCCCC/C=C\C/C=C\C/C=C\C/C=C\CCCC(=O)NCc1ccc(O)c(OC)c1` [Arvanil] it is -0.121.

Regarding `O=C1CSC(c2ccccc2Cl)c2cc(Cl)ccc2N1` (stereo unspecified), the log was -0.291. As for `COc1ccc2c(c[n+](C)c3c4cc5c(cc4ccc23)OCO5)c1OC` [Chelerythrine], the log is -0.159.

As for `CC1=C(CC/C(C)=C/CCC2=CC[C@H](C3=CC(=O)O[C@H]3O)O[C@H]2O)C(C)(C)CCC1` [Manoalide], the log worked out at 0.00897. As for `Cc1c(C(=O)c2cccc3ccccc23)c2cccc3c2n1[C@H](CN1CCOCC1)CO3`, the log was -0.167. In the case of `CC(C)[C@@]1(O)[C@@H](OC(=O)c2ccc[nH]2)[C@@]2(O)[C@@]3(C)C[C@]4(O)O[C@@]5([C@H](O)[C@@H](C)CC[C@]35O)[C@@]2(O)[C@@]14C` [Ryanodine], the log is 0.0589. For the compound `CC(C)(O)[C@H]1O[C@H]2CC[C@@]3(C)[C@@](O)(CC[C@H]4Cc5c([nH]c6ccccc56)[C@@]43C)C2=CC1=O` [Paxilline], the log amounted to 0.0758.

On to `O=c1c2ccccc2[se]n1-c1ccccc1` [Ebselen], for which the log is -0.447.

These data come from the supplement of paper PMC7024190.
